The record followed here is PMC3163267, “Structure and Organisation of SinR, the Master Regulator of Biofilm Formation in Bacillus subtilis” (Journal of Molecular Biology, 2011).

The chains behind the UniProt entries cited, without tags or fusion partners. Where a name states a change or a piece, a line headed by the entry shows the natural chain unless it says otherwise.
UniProt P06533: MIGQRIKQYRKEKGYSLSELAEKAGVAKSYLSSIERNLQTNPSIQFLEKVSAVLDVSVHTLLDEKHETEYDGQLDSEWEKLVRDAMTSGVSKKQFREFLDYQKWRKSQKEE

A word on the Kd: it is a measure of binding affinity in units of concentration.

For at least one entry, the source does not settle the construct or the ends of the probe. For some assays here: Negatives hold for the conditions tested.

Data set [1] addresses SinR (Bacillus subtilis) (UniProt P06533). Description: EMSA. As to conditions: SinR 1-5 uM, DNA 0.5 uM; recombinant protein; residues 1-111. In general terms: In EMSA bound probe runs differently from free probe, usually more slowly.
For data set [2] the target is unchanged. Description: fluorescence anisotropy. The following applies: FA: 10 mM Hepes pH 8.0, 100 mM NaCl, 1 mM DTT, 1 mM EDTA, 5 nM HEX-DNA, 25 C; recombinant protein; residues 1-111.
The target is the same in data set [3]. Description: SEC-MALLS. As to conditions: 1:1 SinR tetramer to duplex, complex peak 74 kDa; recombinant protein; residues 1-111.
The subject of data set [4] is SinR + SinI. The data set can be described thus: SPR. As to conditions: SinR pre-incubated with SinI above stoichiometric ratio; SPR: 10 mM Hepes pH 8.0, 150 mM NaCl, 3 mM EDTA, 0.05% P20; recombinant protein.
In data set [5] the target is SinR (Bacillus subtilis) (UniProt P06533). The data set can be described thus: SPR (steady state). The following applies: SPR: 10 mM Hepes pH 8.0, 150 mM NaCl, 3 mM EDTA, 0.05% P20; recombinant protein; residues 1-111.

Consider “TTTGTTCTCTAAAGAGAACTTA (double strand) [inverted repeat SinRBM duplex, HEX]”, for which the binding result in data set [1] is recorded as “binds”. Further, the dissociation constant (Kd) in data set [2] is 300 nM. Consider “TTTGTTCTCTAAAGAGAACTTA (double strand) [inverted repeat SinRBM duplex, label not stated]”, for which the binding result in data set [3] was “binds”. With “TTTGTTCTCTAAAGAGAACTTA (double strand) [inverted repeat SinRBM duplex, biotin]”, the binding result in data set [4] is “no binding”. Besides, the Kd in data set [5] turned out to be 270 nM.
